From PubChem BioAssay AID493014 (National Center for Advancing Translational Sciences (NCATS), 2011)
“And” between values parts separate entries of the source, which are not always exact repeats. Equal entries are not always repeated. Some of the results follow. Shown are side measurements of this screen, not its main read-out; they come without a call. The list favours compounds with an active or inconclusive main result. Words in brackets tell the shape of the fitted curve; partial curves, single points and poor fits give uncertain potencies.

Assay: qHTS Assay to Find Inhibitors of Chronic Active B-Cell Receptor Signaling
Conditions: ABC-DLBCL IkBa-CBG/CBR reporter, luminescence ratio (green luciferase fused to IkBa over red control in TMD8 lymphoma cells), 4 h
Summary of the method: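 TMD8 human ABC-DLBCL cells with doxycycline-inducible IκBα–green luciferase fusion and unfused red luciferase, in 0.5% FBS medium; compounds up to 46 uM, 4 h at 37C. Green/red luminescence ratio, filter-overlap corrected, fitted to concentration-response curves.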

[1] = measured here: CBR red luminescence, cell number
[2] = measured here: IkBa-CBG green luminescence

| Compound | AC50 [1] | AC50 [2] |
| --- | --- | --- |
| Cc1ccc(C(=O)NCC(=O)OCC(=O)Nc2ccccc2[N+](=O)[O-])cc1 | 1.64 µM [rising, full curve, poor fit] |  |
| CC(=O)Nc1ccc(NC(=O)CSc2nc(C)nc3sc(C)c(C)c23)cc1 | 1.78 µM [rising, partial curve, poor fit] |  |
| N=C(N)SCc1cccc2ccccc12 | 22.4 µM [falling, single point] |  |
| Cc1ccc(C2CC2c2n[nH]c(=S)n2-c2ccc(Cl)cc2)cc1 (centres undefined) | 5.8 µM [rising, full curve, poor fit] |  |
| COc1cc(-c2nc(-c3ccccc3)c(-c3ccc(F)cc3)[nH]2)cc2c1OCO2 | 16.4 µM [falling, single point] |  |
| O=S(=O)(NCc1ccccn1)c1ccc(Cl)c(C(F)(F)F)c1 | 6.31 µM [rising, single point] |  |
| O=C(O)COc1ccc(/C=N/NC(=O)c2cccc3ccccc23)cc1 | 8.91 µM [falling, partial curve, poor fit] |  |
| CCn1cnc2cc(NCc3ccc(N(C)C)cc3)ccc21 | 0.112 µM [rising, full curve, poor fit] |  |
| Clc1cccc(/C(Cc2nc3ccccc3[nH]2)=N\Nc2ccccc2)c1 | 29.1 µM [falling, single point] |  |
| O=C(O)C1CCCCC1C(=O)N1CCN(S(=O)(=O)c2ccc(F)cc2)CC1 (centres undefined) | 35.5 µM [falling, single point] |  |
| CCN(CCn1cccn1)Cc1nc(-c2ccc(C(=O)OC)cc2)no1 | 12.6 µM [falling, partial curve, poor fit] |  |
| COc1ccc(OC)c(/C=N/NC(=S)NCCc2ccccc2)c1 | 12.6 µM [falling, partial curve, poor fit] |  |
| CCC(C(=O)OCC(=O)Nc1cc(Cl)cc(Cl)c1)c1ccccc1 (centres undefined) | 23.1 µM [rising, single point] |  |
| COc1ccccc1C(=O)N/C(=C\c1cn(S(=O)(=O)N(C)C)c2ccccc12)C(=O)NCCCN1CCOCC1 | 7.08 µM [falling, partial curve, poor fit] |  |
| COC(=O)c1ccc(C(=O)OC)c(NC(=S)N2CCC(C)CC2)c1 | 4.61 µM [falling, full curve, poor fit] |  |
| C/C(=C1/C(=O)N(c2ccc([N+](=O)[O-])cc2)N=C1c1ccccc1)N(C)C | 20 µM [falling, single point] |  |
| CCOc1ccccc1NC(=O)N1CCC(N2CCN(Cc3ccccc3)C(=O)C2=O)CC1 | 11.2 µM [rising, partial curve, poor fit] | 12.6 µM [falling, partial curve] |
| CCOC(=O)COc1ccccc1/C=N\NC(=O)c1cc2c(ccc3ccccc32)o1 | 7.08 µM [falling, partial curve] |  |
| COc1ccccc1N=Nc1[nH]c2ccc(C)cc2c1O | 0.92 µM [rising, full curve, poor fit] |  |
| CCCN1CCN(CCCNC(=O)c2ccc3c(Cl)c4c(nc3c2)CCCC4)CC1 | 25.1 µM [falling, single point] |  |
| COc1ccc(-c2csc(Nc3ccccc3)n2)cc1 | 11.2 µM [falling, single point] |  |

| Compound | AC50 [1] | AC50 [2] |
| --- | --- | --- |
| O=C(Nc1ccc2cn[nH]c2c1)c1c(Cl)cccc1Cl | 29.1 µM [falling, single point] |  |
| CC(C)CC(=O)NC(=S)Nc1ccc(F)cc1F | 3.55 µM [rising, single point] |  |
| CC(=O)c1cccc(NC(=O)c2ccc(N(Cc3ccccc3C)S(C)(=O)=O)cc2)c1 | 25.9 µM [falling, single point] |  |
| CCOc1ccc(C(=O)Nc2cc(-c3nc4ccccc4[nH]3)ccc2Cl)cc1[N+](=O)[O-] |  | 3.66 µM [falling, partial curve, poor fit] |
| CCCCCCCCSc1nnc2[nH]c(=O)cc(N)n12 | 0.447 µM [falling, full curve, poor fit] |  |
| COC(=O)COc1c(Cl)cc(C(c2c(C)[nH][nH]c2=O)c2c(C)[nH][nH]c2=O)cc1OC | 20 µM [falling, partial curve, poor fit] |  |
| Cc1noc(C)c1CSCC(=O)N(CC(C)C)c1c(N)n(Cc2ccccc2)c(=O)[nH]c1=O | 29.1 µM [rising, partial curve, poor fit] |  |
| Cc1noc(NS(=O)(=O)c2ccc(NC(=O)/C=C/c3ccc(C(C)C)cc3)cc2)c1C | 35.5 µM [falling, single point] |  |
| CC(C)c1ccc(OCC(=O)N2CCCCCC2)c(Br)c1 | 0.631 µM [rising, full curve, poor fit] |  |
| O=C(NCCc1ccc(Cl)cc1)c1ccc2c(c1)N(Cc1ccccc1)C(=O)CS2 | 25.1 µM [rising, single point] |  |
| Cc1c(C(=O)NC2CCCCC2)sc2ncnc(N3CCN(c4ccccc4)CC3)c12 | 20 µM [falling, single point] |  |
| O=C(CSc1oc(-c2ccco2)nc1S(=O)(=O)c1ccccc1)NCC1CCCO1 (centres undefined) | 13 µM [rising, partial curve] |  |
| C(=N\Nc1nccc(-c2cccnc2)n1)/c1ccccc1 | 6.31 µM [falling, partial curve, poor fit] |  |
| N#Cc1cnn(Cc2ccccc2)c1/N=C/N1CCOCC1 | 1.84 µM [rising, partial curve, poor fit] |  |
| Cc1ccc(NC(=O)CSC(N)=O)cc1Cl | 7.08 µM [falling, partial curve, poor fit] |  |
| CCCCc1ccc(NC(=O)c2ccc(NS(C)(=O)=O)cc2)cc1 | 20 µM [falling, single point] |  |
| CCOC(=O)C1=C(COC(=O)Cc2c(F)cccc2Cl)NC(=O)NC1C (centres undefined) | 29.1 µM [rising, single point] |  |
| COc1ccc2c(Cl)c(C(=O)NCc3ccco3)sc2c1 | 4.61 µM [rising, partial curve, poor fit] |  |
| c1ccc2ncc(-n3cnnn3)cc2c1 |  | 32.6 µM [falling, partial curve, poor fit] |
| COc1cccc(N=Nc2c(N)[nH]n3c(=O)c4c(nc23)CCCC4)c1 | 1.26 µM [falling, full curve, poor fit] |  |
| CC(=O)Nc1ccc(NC(=O)Nc2ccccc2C)cc1 | 3.55 µM [falling, partial curve, poor fit] |  |

Some of the entries above in another layout.
Compound | AC50 [1] | AC50 [2]
COC(=O)COc1c(Cl)cc(C(c2c(C)[nH][nH]c2=O)c2c(C)[nH][nH]c2=O)cc1OC | 20 µM [falling, partial curve, poor fit] | 
Cc1noc(C)c1CSCC(=O)N(CC(C)C)c1c(N)n(Cc2ccccc2)c(=O)[nH]c1=O | 29.1 µM [rising, partial curve, poor fit] | 

(listing goes on)

| Compound | AC50 [1] | AC50 [2] |
| --- | --- | --- |
| O=C(Nc1cccc(-c2nc3ccccc3[nH]2)c1)c1cccc(NC(=O)c2ccco2)c1 | 4.11 µM [falling, partial curve] |  |
| O=C(NC(=O)c1ccccc1)Nc1ccccn1 | 1.41 µM [falling, partial curve] |  |
| CCOc1ccc(N(Cc2ccc(C(=O)O)cc2)S(=O)(=O)c2ccc(C)cc2)cc1 | 35.5 µM [rising, single point] | 35.5 µM [falling, single point] |
| COc1ccc(OC)c(-n2c(SCC(=O)Nc3cc(C)on3)nnc2-c2c[nH]c3ccccc23)c1 | 6.51 µM [falling, full curve, poor fit] |  |
| COC(=O)c1ccc(NC(=O)CCOc2ccccc2)cc1 | 7.94 µM [rising, partial curve] |  |
| Cn1c2ccc(F)cc2c2ncn(Cc3ccco3)c(=O)c21 | 29.1 µM [falling, single point] |  |
| CC(=O)N1CCC(=NNc2nc3ccccc3[nH]2)CC1 | 35.5 µM [falling, single point] |  |
| Cc1cccc(Nc2nc(N)nc(-c3oc4ccccc4c3C)n2)c1 | 3.55 µM [falling, full curve] | 3.98 µM [rising, full curve, poor fit] |
| Cc1[nH]n(C(N)=S)c(=O)c1N=Nc1ccc([N+](=O)[O-])cc1Cl |  | 5.01 µM [falling, partial curve, poor fit] |
| O=C(c1ccc(Cl)c(Cl)c1)N(Cc1ccco1)c1ccc(O)cc1 | 23.1 µM [falling, partial curve, poor fit] |  |
| CCOC(=O)c1sc(NC(=O)COC(=O)CNC(=O)c2ccco2)c(C(=O)OCC)c1C | 5.8 µM [rising, partial curve, poor fit] |  |
| CN1CCC(=C2c3ccccc3CC(=O)c3sccc32)CC1 | 14.6 µM [falling, partial curve, poor fit] and 25.1 µM [falling, single point] |  |
| CCC(=O)N(C1=C(NC(C)C)C(=O)c2ccccc2C1=O)C(C)C | 35.5 µM [falling, single point] |  |
| O=C(c1cc(N2C(=O)C3C4CCC(C4)C3C2=O)ccc1Cl)N1CCN(c2ccc(F)cc2)CC1 (centres undefined) | 6.51 µM [rising, partial curve, poor fit] |  |
| Cc1ccc(/C=c2\s/c(=C(/C#N)C(=O)N3CCCC3)n(Cc3ccco3)c2=O)s1 | 18.4 µM [falling, single point] |  |
| O=C(NC1CCCc2ccccc21)c1ccc([N+](=O)[O-])cc1 (centres undefined) | 0.158 µM [falling, partial curve, poor fit] |  |
| Cc1c(C#N)c2ccccc2n1CC(=O)NCCc1c[nH]c2ccccc12 | 2.51 µM [falling, single point] |  |
| COc1ccc(-c2sc3cc4c(cc3c2C#Cc2ccc(N)cc2)OCO4)cc1 | 29.1 µM [rising, single point] |  |
| O=C(COC(=O)c1ccc(-c2cnc3ccccc3n2)cc1)c1ccccc1 | 2.06 µM [rising, partial curve, poor fit] |  |

Another view of part of the listing above.
Compound,AC50 [1],AC50 [2]
Cc1ccc(C(=O)NCC(=O)OCC(=O)Nc2ccccc2[N+](=O)[O-])cc1,"1.64 µM [rising, full curve, poor fit]",
CCn1cnc2cc(NCc3ccc(N(C)C)cc3)ccc21,"0.112 µM [rising, full curve, poor fit]",
COC(=O)c1ccc(C(=O)OC)c(NC(=S)N2CCC(C)CC2)c1,"4.61 µM [falling, full curve, poor fit]",
